Data as given in PubChem BioAssay AID1159584 (Peter MacCallum Cancer Centre, 2016).

- Aim: 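Knock-downs that harm CDH1-null cells more than parental MCF10A cells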 (primary screen)
- Cells: human MCF10A breast epithelial cells, parental and CDH1-null
- Reagent: siRNA against human genes
- Measured: 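ATP luminescence (CellTiter-Glo) viability per line relative to mean mock wells over all plates, and the ratio of CDH1-null to parental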
- Reading the numbers: CDH1-null / parental viability ratio: higher = CDH1-null cells survive relatively better than parental; CDH1-null viability vs mock: higher = more viable CDH1-null cells
The deposit covers about 18,000 reagents; below is an unselected part. Not all columns of the deposit are shown. The record does not give: the amount of reagent, the time to read-out.

After knock-down of AAK1 (AP2 associated kinase 1) the results were CDH1-null / parental viability ratio 0.89; CDH1-null viability vs mock (fraction of mock) = 0.64.
For REXO1L1P (REXO1 like 1, pseudogene) the deposit lists CDH1-null / parental viability ratio 1.06; CDH1-null viability vs mock (fraction of mock) = 1.02.
Depletion of RIC8B (RIC8 guanine nucleotide exchange factor B) resulted in: CDH1-null / parental viability ratio 1.04; CDH1-null viability vs mock (fraction of mock) = 0.88.
CALCR (calcitonin receptor) scored CDH1-null / parental viability ratio 1.29; CDH1-null viability vs mock (fraction of mock) = 0.93.
CACNB4 (calcium voltage-gated channel auxiliary subunit beta 4) scored CDH1-null / parental viability ratio 1.19; CDH1-null viability vs mock (fraction of mock) = 1.02.

Sorted by “CDH1-null viability vs mock (fraction of mock)” (low to high): 2 of the entries above
RIC8B (RIC8 guanine nucleotide exchange factor B) — CDH1-null / parental viability ratio: 1.04; CDH1-null viability vs mock (fraction of mock): 0.88
CALCR (calcitonin receptor) — CDH1-null / parental viability ratio: 1.29; CDH1-null viability vs mock (fraction of mock): 0.93

The list goes on:
Silencing of USP6NL (USP6 N-terminal like) came out at: CDH1-null / parental viability ratio 1.4; CDH1-null viability vs mock (fraction of mock) = 0.84.
Depletion of RPS4Y1 (ribosomal protein S4 Y-linked 1) gave: CDH1-null / parental viability ratio 1.55; CDH1-null viability vs mock (fraction of mock) = 0.68.
For OR8B3 (olfactory receptor family 8 subfamily B member 3) the deposit lists CDH1-null / parental viability ratio 0.9; CDH1-null viability vs mock (fraction of mock) = 0.76.
After knock-down of ABHD1 (abhydrolase domain containing 1), the record shows CDH1-null / parental viability ratio 1.1; CDH1-null viability vs mock (fraction of mock) = 0.8.
After knock-down of CPN1 (carboxypeptidase N subunit 1), the record shows CDH1-null / parental viability ratio 0.99; CDH1-null viability vs mock (fraction of mock) = 0.7.
With knock-down of AP1M2 (adaptor related protein complex 1 subunit mu 2), the screen gave CDH1-null / parental viability ratio 1.06; CDH1-null viability vs mock (fraction of mock) = 1.
After knock-down of CDH5 (cadherin 5), the record shows CDH1-null / parental viability ratio 0.66; CDH1-null viability vs mock (fraction of mock) = 0.74.
Silencing of MR1 (major histocompatibility complex, class I-related) gave: CDH1-null / parental viability ratio 1.32; CDH1-null viability vs mock (fraction of mock) = 1.27.
DGLUCY (D-glutamate cyclase) scored CDH1-null / parental viability ratio 1.15; CDH1-null viability vs mock (fraction of mock) = 0.92.
